Test results published in US10668093B2, “Method for prolonging the over survival of a cancer patient” (National Yang-Ming University, priority 2015, dated 2020).

Tested on: CTV-1
Assay: 50% cell death in three-day growth
Type: cell-based
Conditions: Homo sapiens, 72 h; three-day growth of CTV-1; read-out: final concentration that led to 50% cell death
Procedure: Valproic acid (VPA) (Sigma-Aldrich, MO) at 10^−2 M in dimethyl sulfoxide (DMSO), was stocked at −20° C. Fresh dilution of chemicals were prepared before the experiments.
CTV-1, Molt-3, THP-1, MCR-5, J5, LPC and Hep3B cell lines were obtained from the American Type Culture Collection (Rockville, Md.). CTV-1 and Molt-3 and were grown in RPMI 1640 medium supplemented with 10% fetal bovine serum (FBS); THP-1, MCR5, J5, LPC and Hep3B were grown in Dulbecco's modified Eagle's medium (DMEM, Gibco, Grand Island, N.Y.) supplemented with 10% FBS. All were grown at 37° C. in a humidified atmosphere containing 5% CO2.

Question: For `O=C(CCCCCCC(=O)Nc1ccccc1)NO` [SAHA, Suberoylanilide hydroxamic acid], which IC50 is on record?
Answer: 1000 nM
